Experimental data reported in patent publication US20040242851A1 (published 2004).
Results are given in words; binding and its absence hold for the method and conditions named. Some entries that bind do so weakly or less than the wild type.

The chains behind the UniProt entries cited, without tags or fusion partners. Residues count along the entry.
UniProt P35968, residues 20-764: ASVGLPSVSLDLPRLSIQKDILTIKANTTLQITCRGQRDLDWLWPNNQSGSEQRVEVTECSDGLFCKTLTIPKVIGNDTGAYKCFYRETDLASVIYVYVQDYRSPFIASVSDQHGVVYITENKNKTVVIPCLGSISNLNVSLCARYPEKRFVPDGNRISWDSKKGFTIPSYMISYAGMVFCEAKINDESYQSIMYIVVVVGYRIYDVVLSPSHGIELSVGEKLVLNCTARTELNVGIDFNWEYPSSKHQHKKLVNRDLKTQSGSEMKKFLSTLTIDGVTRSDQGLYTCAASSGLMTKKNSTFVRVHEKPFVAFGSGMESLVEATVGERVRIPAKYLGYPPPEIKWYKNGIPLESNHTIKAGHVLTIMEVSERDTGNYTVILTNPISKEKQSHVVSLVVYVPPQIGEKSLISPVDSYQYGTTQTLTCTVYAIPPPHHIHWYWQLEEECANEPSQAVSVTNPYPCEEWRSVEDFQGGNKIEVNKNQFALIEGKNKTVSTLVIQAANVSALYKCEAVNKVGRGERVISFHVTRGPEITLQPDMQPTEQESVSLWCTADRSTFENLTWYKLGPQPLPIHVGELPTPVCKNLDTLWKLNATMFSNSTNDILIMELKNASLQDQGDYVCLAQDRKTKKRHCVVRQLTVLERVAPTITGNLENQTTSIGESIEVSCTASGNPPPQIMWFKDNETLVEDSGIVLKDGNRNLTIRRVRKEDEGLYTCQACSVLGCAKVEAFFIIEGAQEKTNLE

B1: D2C6 (Fab, V domains shown)
VH: EVQLVQSGGGLVKPGGSLRLSCAASGFTFSSYSMNWVRQAPGKGLEWVSSISSSSSYIYYADSVKGRFTISRDNAKNSLYLQMNSLRAEDTAVYYCARVTDAFDIWGQGTMVTVSS
VL: EIVMTQSPATLSLSPGERATLSCRASQSVSSYLAWYQQKPGQAPRLLIYDSSNRATGIPARFSGSGSGTDFTLTISSLEPEDFATYYCLQHNTFPPTFGQGTKVEIK
B2: D1H4 (Fab, V domains shown)
VH: EVQLVQSGGGLVKPGGSLRLSCAASGFTFSSYSMNWVRQAPGKGLEWVSSISSSSSYIYYADSVKGRFTISRDNAKNSLYLQMNSLRAEDTAVYYCARVTDAFDIWGQGTMVTVSS
VL: QSALTQPASLSGSPGQSITISCAGTTTDLTYYDLVSWYQQHPGQAPKLVIYDGNKRPSGVSNRFSGSKSGNTASLTISGLQAEDEADYYCNSYVSSRFYVFGTGTKVTVL
B3: D2H2 (Fab, V domains shown)
VH: EVQLVQSGGGLVKPGGSLRLSCAASGFTFSSYSMNWVRQAPGKGLEWVSSISSSSSYIYYADSVKGRFTISRDNAKDSLYLQMNSLRAEDTAVYYCARVTDAFDIWGQGTMVTVSS
VL: DIQLTQSPSSVSASVGDRVTITCRASQGISSRLAWYQQKPGKAPKLLIYAASSLQTGVPSRFSGSGSGTDFTLTISSLQPEDFATYYCQQANRFPPTFGPGTKVDIK
B4: scFv p1C11 (scFv)
scFv: QVKLQQSGAELVGSGASVKLSCTTSGFNIKDFYMHWVKQRPEQGLEWIGWIDPENGDSDYAPKFQGKATMTADSSSNTAYLQLSSLTSEDTAVYYCNAYYGDYEGYWGQGTTVTVSSGGGGSGGGGSGGGGSDIELTQSPAIMSASPGEKVTITCSASSSVSYMHWFQQKPGTSPKLWIYSTSNLASGVPARFSGSGSGTSYSLTISRMEAEDAATYYCQQRSSYPFTFGSGTKLEIK
notes: soluble form made in E. coli; also called KDR-specific scFv p1C11
B5: SF2 (Fab, V domains shown)
VH: EVQLVQSGGGLVKPGGSLRLSCAASGFTFSSYSMNWVRQAPGKGLEWVSSISSSSSYIYYADSVKGRFTISRDNAKNSLYLQMNSLRAEDTAVYYCARVTDAFDIWGQGTMVTVSS
VL: QSVVTQPPSVSGAPGQRVTISCTGSSSNIGTGYDVHWYQQVPGSAPKLLIYAYTNRPSGVPDRFSGSKSGMSASLVIGGLQAEDEADYYCQSFDDSLNGLVFGPGTSVTVL
B6: SA3 (Fab, V domains shown)
VH: EVQLVQSGGGLVKPGGSLRLSCAASGFTFSSYSMNWVRQAPGKGLEWVSSISSSSSYIYYADSVKGRFTISRDNAKNSLYLQMNSLRAEDTAVYYCARVTDAFDIWGQGTMVTVSS
VL: DVVMTQSPSSLSASVGDRVTITCRASQNINNYLNWYQQKPGKAPKLLIYAASTLQSGVPSRFSGSGSGTDFTLTITSLQPEDSATYYCQQYSRYPPTFGGGTKVEIT
B7: SA1 (Fab, V domains shown)
VH: EVQLVQSGGGLVKPGGSLRLSCAASGFTFSSYSMNWVRQAPGKGLEWVSSISSSSSYIYYADSVKGRFTISRDNAKNSLYLQMNSLRAEDTAVYYCARVTDAFDIWGQGTMVTVSS
VL: QSVVTQPPSVSGAPGQRVTISCTGSHSNFGAGTDVHWYQHLPGTAPRLLIHGDSNRPSGVPDRFSGSRSGTSASLAITGLRVEDEADYYCQSYDYGLRGWVFGGGTKLTVL
B8: SB5 (Fab, V domains shown)
VH: EVQLVQSGGGLVKPGGSLRLSCAASGFTFSSYSMNWVRQAPGKGLEWVSSISSSSSYIYYADSVKGRFTISRDNAKNSLYLQMNSLRAEDTAVYYCARVTDAFDIWGQGTMVTVSS
VL: QAVLTQPSSVSGAPGQRVTISCTGQSSNIGADYDVHWYQQFPGTAPKLLIYGHNNRPSGVPDRFSGSKSGTSVSLVISGLQAEDEADYYCQSYDSSLSGLVFGGGTKVTVL
B9: SD5 (Fab, V domains shown)
VH: EVQLVQSGGGLVKPGGSLRLSCAASGFTFSSYSMNWVRQAPGKGLEWVSSISSSSSYIYYADSVKGRFTISRDNAKNSLYLQMNSLRAEDTAVYYCARVTDAFDIWGQGTMVTVSS
VL: QSVVTQPPSVSGAPGQRVTISCSGSRSNIGAHYEVQWYQQFPGAAPKLLIYGDTNRPSGVPDRFSASHSGTSASLAITGLQAEDEADYYCQSYDTSLRGPVFGGGTKLTVL
B10: SF7 (Fab, V domains shown)
VH: EVQLVQSGGGLVKPGGSLRLSCAASGFTFSSYSMNWVRQAPGKGLEWVSSISSSSSYIYYADSVKGRFTISRDNAKNSLYLQMNSLRAEDTAVYYCARVTDAFDIWGQGTMVTVSS
VL: QSVLTQPPSVSGAPGQRVTISCTGSHSNFGAGTDVHWYQHLPGTAPRLLIHGDTHRPSGVADRFSGSRSGASASLAITGLRVEDEADYYCQSYDYGLRGWVFGGGTKLTVL
B11: SD2 (Fab, V domains shown)
VH: EVQLVQSGGGLVKPGGSLRLSCAASGFTFSSYSMNWVRQAPGKGLEWVSSISSSSSYIYYADSVKGRFTISRDNAKNSLYLQMNSLRAEDTAVYYCARVTDAFDIWGQGTMVTVSS
VL: DIELTQSPSSVSASVGDRVTLTCRASQSIKRWLAWYQQKPGKAPRLLIYAASTLQSGVPSRFSGGGSGTDFTLTINSLQPEDFAIYYCQQANSFPPTFGPGTKVDIK
B12: 1121 (Fab, V domains shown)
VH: EVQLVQSGGGLVKPGGSLRLSCAASGFTFSSYSMNWVRQAPGKGLEWVSSISSSSSYIYYADSVKGRFTISRDNAKNSLYLQMNSLRAEDTAVYYCARVTDAFDIWGQGTMVTVSS
VL: DIQMTQSPSSVSASIGDRVTITCRASQGIDNWLGWYQQKPGKAPKLLIYDASNLDTGVPSRFSGSGSGTYFTLTISSLQAEDFAVYFCQQAKAFPPTFGGGTKVDIK
B13: SB10 (Fab, V domains shown)
VH: EVQLVQSGGGLVKPGGSLRLSCAASGFTFSSYSMNWVRQAPGKGLEWVSSISSSSSYIYYADSVKGRFTISRDNAKNSLYLQMNSLRAEDTAVYYCARVTDAFDIWGQGTMVTVSS
VL: QSALTQPASVSGSRGQSITLSCTGSSTDVGNYNYISWYQQHPGQAPKLLIYDVTSRPSGVSDRFSGSKSGLTASLTISGLQPEDEADYYCNSYSATDTLVFGGGTKLTVL
B14: SC7 (Fab, V domains shown)
VH: EVQLVQSGGGLVKPGGSLRLSCAASGFTFSSYSMNWVRQAPGKGLEWVSSISSSSSYIYYADSVKGRFTISRDNAKNSLYLQMNSLRAEDTAVYYCARVTDAFDIWGQGTMVTVSS
VL: DIQLTQSPSSVSASVGDSVTITCRASQDISSWLAWYQQKPGEAPKLLIYAASLLQSGVPSRFSGSGSGTDFALTINSLQPEDFATYFCQQADSFPPTFGQGTRLEIK

molecular target: soluble fusion protein KDR-alkaline phosphatase (AP) (human) (UniProt P35968); test: phage display selection on immobilized KDR-AP and phage ELISA

binding, binds:
B1, B2, B3

molecular target: soluble fusion protein KDR-alkaline phosphatase (AP) (human) (UniProt P35968); test: direct binding ELISA on immobilized KDR, anti-E tag-HRP detection

binding, binds:
B4

molecular target: soluble fusion protein KDR-alkaline phosphatase (AP) (human) (UniProt P35968); test: screening of the second Fab library (D2C6 heavy chain, shuffled light chains)

binding, binds:
B5, B6, B7, B8, B9, B10, B11, B12, B13, B14

molecular target: soluble fusion protein KDR-alkaline phosphatase (AP) (human) (UniProt P35968); test: direct binding ELISA on immobilized KDR, detection with anti-E tag antibody-HRP, A450

binding, binds:
B4

molecular target: soluble fusion protein KDR-alkaline phosphatase (AP) (human) (UniProt P35968); test: blocking ELISA: antibody pre-mixed with KDR-AP, transferred to immobilized VEGF165; plate-bound KDR-AP read at 405 nm

binding, binds:
B4
